The structures appear in SMILES notation. Some of the results follow. These are further read-outs of the screen, such as a control signal, another cell line or another target. No call is given for them. The list favours compounds with an active or inconclusive main result. Words in brackets tell the shape of the fitted curve; partial curves, single points and poor fits give uncertain potencies.

These results are taken from PubChem BioAssay AID493014 (National Center for Advancing Translational Sciences (NCATS), 2011).

A short description of the assay: qHTS Assay to Find Inhibitors of Chronic Active B-Cell Receptor Signaling. The settings on record: ABC-DLBCL IkBa-CBG/CBR reporter, luminescence ratio (green luciferase fused to IkBa over red control in TMD8 lymphoma cells), 4 h. In short, it runs like this:
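Cell line TMD8 (human ABC DLBCL), stably expressing tet-inducible CBG68-IkBa fusion and CBR; IMDM/0.5% FBS; cpd up to 46 uM; dox induction, 4 h, 37C/5% CO2; dual luminescence; green/red ratio; MG132 control.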

Setting [1] is: measured here: CBR red luminescence, cell number.
[2] abbreviates: measured here: IkBa-CBG green luminescence.

`CCNc1nc(ON=C(C)C)nc(N(C)C)n1`: the AC50 under setting [1] was 29.1 µM [rising, single point]. The same measure, in the same setting: to `O=C(N/N=C/c1cccs1)c1cccc(S(=O)(=O)Nc2ccc(Cl)cc2)c1` belongs 35.5 µM [rising, single point]; to `CC(=O)c1ccc(NC2OC(CO)C(O)C(O)C2O)cc1` (stereo unspecified), 35.5 µM [falling, single point]; to `CCCOc1cccc(-c2nc3ccccc3c(=O)o2)c1`, 10 µM [falling, partial curve]. `CCCOC(=O)c1ccc(NS(=O)(=O)c2cccs2)cc1`: the AC50 under setting [1] was 2 µM [falling, partial curve, poor fit]. On the same count and under the same terms, to `O=C(NNc1cccc(Cl)c1)c1cccnc1Oc1ccccc1` belongs 1.26 µM [rising, partial curve]; to `CCOC(=O)c1cnc2nc(COc3ccccc3)[nH]n2c1=O`, 0.184 µM [falling, full curve, poor fit].

As to `COc1cc(C(=O)O/N=C2\C=CC(=O)C(C)=C2)cc(OC)c1OC`, the AC50 under setting [1] was 3.55 µM [falling, partial curve]. For the compound `O=C(NN=C1C2CC3CC(C2)CC1C3)c1ccncc1`, the AC50 under setting [1] is 35.5 µM [falling, single point]. Still for that read-out and setting: to `COc1ccc(NC(=O)C(C)N2C(=O)c3ccccc3S2(=O)=O)c(OC)c1` (stereo unspecified) belongs 4.11 µM [falling, single point]. In the case of `CC(C)Cc1cc(C(=O)N2CCN(C(c3ccccc3)c3ccccc3)CC2)no1`, under setting [1], the AC50 was 35.5 µM [rising, partial curve, poor fit]. For the compound `O=C(COc1cccc2ccccc12)NNC(=O)Nc1ccccc1`, under setting [2], the AC50 is 35.5 µM [falling, single point].

`CCOC(=O)N1CCN(C(=O)CCCCCn2c(=S)[nH]c3cc4c(cc3c2=O)OCO4)CC1`: under setting [1], the AC50 is 14.1 µM [falling, single point]. In the case of `CC(NCCCOc1cccc2ccccc12)c1ccccc1` (stereo unspecified), the AC50 under setting [1] was 10 µM [falling, partial curve, poor fit].

With `COc1ccc(-c2nc(C(F)(F)F)c(OC)o2)cc1OC`, under setting [1], the AC50 was 9.2 µM [rising, partial curve, poor fit]. Still for that read-out and setting: to `O=C(Nc1ccc(S(=O)(=O)N2CCOCC2)cc1)c1cccc(Br)c1` belongs 11.2 µM [rising, partial curve]; to `C/C(=N\NC(=O)c1cccc(Cl)c1)c1cccc(NC(=O)c2ccco2)c1`, 29.1 µM [falling, single point]. The same measure, in the same setting: to `O=C(CC1C(=O)NCCN1Cc1ccccc1C(F)(F)F)NCCn1cccn1` (stereo unspecified) belongs 3.16 µM [rising, partial curve].

Regarding `COc1cc(/C=N/NC(=S)NC2CC3C=CC2C3)cc(OC)c1OC` (stereo unspecified), under setting [1], the AC50 is 14.1 µM [falling, single point]. For the compound `Cc1cc(SCC(=O)N/N=C/c2ccc(O)cc2O)c(C)cc1Br`, the AC50 under setting [1] was 1.03 µM [falling, full curve, poor fit]. Same read-out and setting: to `COc1cc(CCC(=O)OCC(=O)NCCc2ccc(S(N)(=O)=O)cc2)cc(OC)c1OC` belongs 9.2 µM [rising, single point]; to `COc1cccc(CNC(=O)COC(=O)CN(C)S(=O)(=O)c2ccc(NC(C)=O)cc2)c1`, 22.4 µM [rising, single point]; to `CC(=O)Nc1ccc(NS(=O)(=O)c2cc3c4c(c2)CC(=O)N4CCC3)cc1`, 0.562 µM [rising, full curve, poor fit].

As for `C[C@H](CO)N1C[C@H](C)[C@@H](CN(C)C(=O)Nc2ccc(C(F)(F)F)cc2)Oc2c(NC(=O)Nc3ccccc3)cccc2C1=O`, the AC50 under setting [1] is 29.1 µM [falling, single point]. For the compound `CC(C)(C)Sc1ccc([N+](=O)[O-])cc1C(=O)Nc1ccncc1`, under setting [1], the AC50 is 5.01 µM [rising, partial curve, poor fit]. Take `Cc1ccc2[nH]c3c(=O)n(CCCN4CCN(C)CC4)cnc3c2c1`: the AC50 under setting [1] was 6.51 µM [falling, single point].

As for `S=C(NCC1CC1)N/N=C/c1ccccc1Cl`, the AC50 under setting [1] is 35.5 µM [rising, single point].

With `Cc1c(C(=O)Oc2cc(N)n(S(C)(=O)=O)n2)cccc1[N+](=O)[O-]`, under setting [1], the AC50 was 35.5 µM [falling, single point]. On to `COc1ccc(/C(N)=N/OC(=O)Cc2ccccc2OC)cc1`, for which the AC50 under setting [1] is 3.55 µM [falling, partial curve, poor fit].

For `Cc1[nH]nc2c1C(c1cn[nH]c1-c1ccc(F)cc1)C(C#N)=C(N)O2` (stereo unspecified), under setting [1], the AC50 was 12.6 µM [falling, partial curve, poor fit]. The same measure, in the same setting: to `Oc1ccc(N=Nc2ccccc2C(F)(F)F)c2cccnc12` belongs 11.2 µM [rising, partial curve]; to `Cn1c2ccccc2c(=O)c2ccc(C#CC3(N)CCCCC3)cc21`, 25.1 µM [falling, single point]; to `C=CCN(CC(=O)NCc1ccc(OC)cc1)C(=O)c1csnn1`, 10.3 µM [rising, partial curve, poor fit].

For the compound `CC(=O)Nc1ccc(NC(=O)c2cc(-c3cc(C)cc(C)c3O)n[nH]2)cc1`, the AC50 under setting [1] was 3.98 µM [falling, partial curve, poor fit]. As for `CCN(CC)c1ccc(S(=O)(=O)N2CCCCC2)cc1NC(=O)C1CSC2(C)CCC(=O)N12` (stereo unspecified), the AC50 by setting is: under setting [1], 7.31 µM [rising, full curve, poor fit]; under setting [2], 20.6 µM [falling, partial curve, poor fit]. Consider `COC(=O)Nc1ccc(OCc2ccccc2)cc1`, for which the concentration at half-maximal activity (AC50) under setting [1] was 0.116 µM [rising, full curve, poor fit].

Consider `Cc1ccc(/C=C2\SC(=S)N(CCCC(=O)Nc3cccnc3)C2=O)cc1`, for which, under setting [1], the AC50 is 0.316 µM [falling, full curve]. Same read-out and setting: to `NNC(=O)c1oc2nc(-c3ccco3)cc(-c3ccco3)c2c1N` belongs 0.891 µM [falling, full curve, poor fit]; to `CCN(C(=O)C1CCN(c2nc(-c3ccc(OC)cc3)no2)CC1)c1ccc(OC)cc1`, 7.08 µM [falling, full curve]; to `CCOC(=O)c1ccc(-c2csc(NC(=O)CN3CCC(C)CC3)n2)cc1`, 1.78 µM [rising, partial curve, poor fit]. `Cc1[nH]nc2c1C(c1c[nH]c3ccccc13)C(C#N)=C(N)O2` (stereo unspecified): the AC50 runs as follows: under setting [1], 35.5 µM [falling, single point]; under setting [2], 17.8 µM [falling, single point]. On to `COCc1[nH]nc2c1C(C1C=CCCC1)C(C#N)=C(N)O2` (stereo unspecified), for which the AC50 under setting [1] was 9.2 µM [falling, partial curve]. On the same count and under the same terms, to `CCOc1cc(/C=N/NC(=O)CSc2nnc(C)s2)ccc1OCc1ccccc1Cl` belongs 4.61 µM [rising, full curve, poor fit]; to `CCC(C(=O)O)n1c(C(F)(F)F)nc2ccccc21` (stereo unspecified), 6.51 µM [rising, single point]. As to `COc1cc(NC(=O)c2ccc3c(c2)OCO3)ccc1NC(=O)c1cccs1`, the AC50 is, setting by setting: under setting [1], 14.1 µM [falling, single point]; under setting [2], 11.2 µM [rising, partial curve, poor fit]. In the case of `O=C(CCN1CCOCC1)c1ccc2c(c1)OCCO2`, the AC50 is 13 µM [falling, partial curve, poor fit] under setting [1] and 16.4 µM [rising, partial curve, poor fit] under setting [2]. Regarding `Cc1cc(C(=O)NN=Cc2ccc(-c3ccc(F)cc3)o2)c(C)o1`, the AC50 under setting [1] was 1.64 µM [falling, partial curve].

As to `Cc1ccc(S(=O)(=O)N2CCOCC2)cc1NC(=O)COC(=O)CNC(=O)c1ccc(C(C)(C)C)cc1`, under setting [1], the half-maximal activity concentration (AC50) was 8.2 µM [falling, partial curve]. On the same count and under the same terms, to `CC(C)(C)c1ccc(C(=O)CC(Sc2ccc(Cl)cc2)C(=O)O)cc1` (stereo unspecified) belongs 11.2 µM [falling, partial curve]; to `COc1ccc(NS(=O)(=O)c2cc(NC(=O)/C=C/c3cccs3)ccc2N2CCOCC2)cc1`, 7.31 µM [rising, partial curve].

`Cc1ccccc1-c1nnc(SCC(=O)NCc2ccc3c(c2)OCO3)n1C`: the AC50 under setting [1] is 32.6 µM [rising, single point].

Take `O=C(NC(=S)NNC(=O)c1ccccc1O)c1ccc(F)cc1`: under setting [1], the half-maximal activity concentration (AC50) was 11.2 µM [falling, partial curve].

Consider `CC1(C)c2ccccc2N2CC(=O)N(CC(N)=O)C21C` (stereo unspecified), for which the AC50 under setting [1] is 14.1 µM [rising, partial curve, poor fit]. Consider `Nc1cc(C(=O)O)c(N)c2c1C(=O)c1ccccc1C2=O`, for which the AC50 under setting [1] was 4.47 µM [falling, partial curve].

For `Cc1sc2c(c1C)C(=O)NC(c1ccccc1F)N2` (stereo unspecified), the AC50 under setting [1] was 2.51 µM [falling, full curve, poor fit].

As to `CC(OC(=O)Cc1coc2ccc3ccccc3c12)C(=O)NC(N)=O` (stereo unspecified), the AC50 under setting [1] is 2.82 µM [falling, single point]. Still for that read-out and setting: to `c1ccc(OCc2nn3c(-c4n[nH]c5c4CCC5)nnc3s2)cc1` belongs 11.2 µM [rising, partial curve, poor fit]. On to `CCOC(=O)N/N=C\C=C\c1ccco1`, for which the AC50 under setting [2] was 29.1 µM [falling, partial curve, poor fit].

On to `O=C1/C(=C/c2ccccc2)CCC1C1CCCC1` (stereo unspecified), for which the AC50 under setting [1] is 9.2 µM [rising, partial curve]. Regarding `CCN1C(=O)[C@H]2[C@@H](c3ccc(C)cc3)N3C(=O)N(c4cccc(F)c4)C(=O)[C@@]3(Cc3ccc(Cl)cc3)[C@H]2C1=O`, the AC50 under setting [1] is 16.4 µM [falling, single point].

Turning to `O=C(COC(=O)C1CCN(c2ccc(C(F)(F)F)cn2)CC1)Nc1ncc(Cl)cc1Cl`, the AC50 under setting [1] is 1.46 µM [rising, partial curve].

In the case of `O=C(NCc1nnc(SCc2ccccc2)n1-c1ccc(F)cc1)C12CC3CC(CC(C3)C1)C2`, the AC50 under setting [1] was 29.1 µM [falling, single point].
